Assay results taken from PubChem BioAssay AID192 (DTP/NCI, 2004).
The list shows only some results of the screen, not a fair sample: it gathers tests that were run many times, whatever their T/C, doses with no T/C, and many T/C values between a quarter and a half above the control. Further doses and runs are listed elsewhere. T/C is the treated group as % of the vehicle group. Some doses have a count of surviving animals in place of a T/C: the source files T/C as zero there, which appears to mark a toxic dose or a test without result, not a measured value. Some survivor counts are full or nearly so, which does not show that the dose was tolerated: the source hardly ever lists a survival T/C far under the control, and the zero likely stands for such cases as well. Survivors were counted at the toxicity check, usually on the fifth day, unless a day is given; later deaths do not show. Schedule codes are those of the source, read here as Q, the interval in days (D) or hours (H), X, the number of doses. For survival time, the PubChem record calls one and a half times the control and up active, and a quarter to a half above the control has no call in these data; cut-offs in other NCI protocols can differ. Some doses were run more than once; the results are listed from low to high.

System: BDF1 mice, B16 melanoma ip, median survival T/C
Test: NCI In Vivo Anticancer Drug Screen. Data for tumor model B16 Melanoma (intraperitoneal) in B6D2F1 (BDF1) mice
Settings: T/C endpoint: median survival time, higher T/C = longer survival
Outline: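 Tumor-bearing mice received test compound or vehicle. Survival or tumor size was then measured in both groups. The treated-group figure was divided by the control-group figure.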

[1] = dose: 25.0 mg/kg/injection, schedule: Q01DX009 (ip), vehicle: saline with Tween-80
[2] = dose: 50.0 mg/kg/injection, schedule: Q01DX009 (ip), vehicle: saline with Tween-80
[3] = dose: 100.0 mg/kg/injection, schedule: Q01DX009 (ip), vehicle: saline with Tween-80
[4] = dose: 200.0 mg/kg/injection, schedule: Q01DX009 (ip), vehicle: saline with Tween-80
[5] = dose: 400.0 mg/kg/injection, schedule: Q01DX009 (ip), vehicle: saline with Tween-80
[6] = dose: 200.0 mg/kg/injection, schedule: Q01DX009 (ip), vehicle: saline
[7] = dose: 100.0 mg/kg/injection, schedule: Q01DX009 (ip), vehicle: saline
[8] = dose: 400.0 mg/kg/injection, schedule: Q01DX009 (ip), vehicle: saline
[9] = dose: 400.0 mg/kg/injection, schedule: Q01DX009 (ip), vehicle: Klucel (hydroxypropylcellulose) (HPC)
[10] = dose: 100.0 mg/kg/injection, schedule: Q01DX009 (ip), vehicle: Klucel (hydroxypropylcellulose) (HPC)
[11] = dose: 200.0 mg/kg/injection, schedule: Q01DX009 (ip), vehicle: Klucel (hydroxypropylcellulose) (HPC)
[12] = dose: 12.5 mg/kg/injection, schedule: Q01DX009 (ip), vehicle: saline
[13] = dose: 25.0 mg/kg/injection, schedule: Q01DX009 (ip), vehicle: saline
[14] = dose: 50.0 mg/kg/injection, schedule: Q01DX009 (ip), vehicle: saline

## Clc1ccc2c(c1)/C(=C/c1ccccc1Cl)c1cc(Cl)cc(Cl)c1-2
[1]
  survivor count: 6 of 6
[2]
  survivor count: 6 of 6
[3]
  survivor count: 6 of 6
[4]
  survivor count: 6 of 6
[5]
  survivor count: 6 of 6
dose: 800.0 mg/kg/injection, schedule: Q01DX009 (ip), vehicle: saline with Tween-80
  survivor count: 6 of 6

## CC(C)NNC(=O)c1ccccc1N
dose: 25.0 mg/kg/injection, schedule: Q01DX009 (ip), vehicle: Klucel (hydroxypropylcellulose) (HPC)
  survivor count: 10 of 10

## O=C1CCCN1
[6]
  survivor count: 6 of 6

## CNCCOC(c1ccccc1)c1ccccc1C (stereo unspecified)
[7]
  survivor count: 1 of 10
[6]
  survivor count: 0 of 10
[8]
  survivor count: 0 of 10

## CC(CC=O)CCCC(C)(C)O (stereo unspecified)
[9]
  survivor count: 10 of 10

## CCOc1ccc2nc(Cl)sc2c1
dose: 200.0 mg/kg/injection, schedule: Q04DX003 (ip), vehicle: Klucel (hydroxypropylcellulose) (HPC)
  survivor count: 6 of 10
dose: 400.0 mg/kg/injection, schedule: Q04DX003 (ip), vehicle: Klucel (hydroxypropylcellulose) (HPC)
  survivor count: 0 of 10

## COc1cc2ccc3c(c2cc1OC)N(C)C(OC)c1cc2c(cc1-3)OCO2 (stereo unspecified)
dose: 5.0 mg/kg/injection, schedule: Q01DX009 (ip), vehicle: saline with Tween-80
  T/C: 125 % of control
dose: 20.0 mg/kg/injection, schedule: Q01DX009 (ip), vehicle: saline with Tween-80
  T/C: 138 % of control
dose: 40.0 mg/kg/injection, schedule: Q01DX009 (ip), vehicle: saline with Tween-80
  survivor count: 10 of 10
dose: 80.0 mg/kg/injection, schedule: Q01DX009 (ip), vehicle: saline with Tween-80
  survivor count: 10 of 10

## CC(C)COC(=O)c1ccc(NC(=O)Nc2ccccc2Cl)cc1
[2]
  survivor count: 10 of 10
[3]
  survivor count: 10 of 10
[4]
  survivor count: 10 of 10

## NC(=O)/C=C/C(=O)c1c(Cl)cccc1Cl
dose: 6.25 mg/kg/injection, schedule: Q01DX009 (ip), vehicle: saline with Tween-80
  survivor count: 10 of 10
dose: 12.5 mg/kg/injection, schedule: Q01DX009 (ip), vehicle: saline with Tween-80
  survivor count: 9 of 10
[1]
  survivor count: 0 of 10

## COc1ccc(C(C(N)=O)N2CCOCC2)cc1 (stereo unspecified)
[10]
  survivor count: 10 of 10
[9]
  survivor count: 10 of 10

## CCCC(=O)NC1CCc2cc(OC)c(OC)c(OC)c2-c2ccc(OC)c(=O)cc21 (stereo unspecified)
dose: 0.31 mg/kg/injection, schedule: Q01DX009 (ip), vehicle: Klucel (hydroxypropylcellulose) (HPC)
  T/C: 126 % of control
dose: 0.62 mg/kg/injection, schedule: Q01DX009 (ip), vehicle: Klucel (hydroxypropylcellulose) (HPC)
  T/C: 127 % of control
dose: 1.25 mg/kg/injection, schedule: Q01DX009 (ip), vehicle: Klucel (hydroxypropylcellulose) (HPC)
  T/C: 134 and 142 % of control
dose: 2.5 mg/kg/injection, schedule: Q01DX009 (ip), vehicle: Klucel (hydroxypropylcellulose) (HPC)
  survivor count: 10 of 10
dose: 5.0 mg/kg/injection, schedule: Q01DX009 (ip), vehicle: Klucel (hydroxypropylcellulose) (HPC)
  survivor count: 6 of 10

## Nc1ncnc2c1ncn2C1OCC(O)C1O (stereo unspecified)
[7]
  survivor count: 10 of 10

## O=C1c2ccccc2-c2ncccc21
[10]
  survivor count: 6 of 10
[11]
  survivor count: 0 of 10
[9]
  survivor count: 10 of 10

## C[C@H]1CN1C1=CC(=O)C(N2C[C@@H]2C)=CC1=O
dose: 2.0 mg/kg/injection, schedule: Q01DX009 (ip), vehicle: saline with Tween-80
  T/C: 125 % of control
dose: 4.0 mg/kg/injection, schedule: Q01DX009 (ip), vehicle: saline with Tween-80
  T/C: 144 % of control
dose: 8.0 mg/kg/injection, schedule: Q01DX009 (ip), vehicle: Klucel (hydroxypropylcellulose) (HPC)
  survivor count: 10 of 10
dose: 8.0 mg/kg/injection, schedule: Q01DX009 (ip), vehicle: saline with Tween-80
  survivor count: 6 of 6
dose: 16.0 mg/kg/injection, schedule: Q01DX009 (ip), vehicle: Klucel (hydroxypropylcellulose) (HPC)
  survivor count: 5 of 10

## C/C=C/c1cc2n(c1)C(=O)c1cc(OC3OC(C)C(NC)C(C)(O)C3O)c(C)c(O)c1NC2O (stereo unspecified)
dose: 0.04 mg/kg/injection, schedule: Q04DX003 (ip), vehicle: DMSO
  survivor count: 8 of 10
dose: 0.08 mg/kg/injection, schedule: Q04DX003 (ip), vehicle: DMSO
  survivor count: 4 of 10
dose: 0.16 mg/kg/injection, schedule: Q04DX003 (ip), vehicle: DMSO
  survivor count: 1 of 10
dose: 0.32 mg/kg/injection, schedule: Q04DX003 (ip), vehicle: DMSO
  survivor count: 0 of 10
dose: 0.3 micrograms/kg/injection, schedule: Q04DX003 (ip), vehicle: saline
  T/C: 136 % of control
dose: 4.0 micrograms/kg/injection, schedule: Q04DX003 (ip), vehicle: saline
  T/C: 136 % of control
dose: 8.0 micrograms/kg/injection, schedule: Q04DX003 (ip), vehicle: saline
  survivor count: 6 of 10
dose: 32.0 micrograms/kg/injection, schedule: Q04DX003 (ip), vehicle: saline
  survivor count: 1 of 10

## C1CC[N-]CC1.CC(=N\O)/C(C)=N/O.CC(=N\O)/C(C)=N/O.[CH-]1CCCCC1.[Co+2]
[11]
  survivor count: 9 of 10

## C[n+]1ccccc1/C=C/c1cccc([N+](=O)[O-])c1
dose: 10.0 mg/kg/injection, schedule: Q04DX003 (ip), vehicle: saline with Tween-80
  survivor count: 10 of 10

## CCO/C=C1\SC(=S)N(c2ccccc2OC)C1=O
[11]
  survivor count: 7 of 10
[9]
  survivor count: 7 of 10

## CCCCCCCCCCCCCCCC[N+]1(C)CCN(SN2CC[N+](C)(CCCCCCCCCCCCCCCC)CC2)CC1
[12]
  survivor count: 10 of 10
[13]
  survivor count: 10 of 10

## CN1C2CCC1CC(OC1c3ccccc3CCc3ccccc31)C2 (stereo unspecified)
[13]
  survivor count: 8 of 10
[14]
  survivor count: 8 of 10

## Cc1nnc(NS(=O)(=O)c2ccc(N=Nc3nc4[nH]c(N)nc(=S)c4[nH]3)cc2)s1
[4]
  survivor count: 10 of 10
[5]
  survivor count: 4 of 10

## Cc1ccc(C)c(NC(=O)Nc2cccc(Cl)c2)c1
[9]
  survivor count: 9 of 10

## CC(C)=C(C=O)CCC(C)C
dose: 200.0 mg/kg/injection, schedule: Q04DX003 (ip), vehicle: saline with Tween-80
  survivor count: 10 of 10
dose: 400.0 mg/kg/injection, schedule: Q04DX003 (ip), vehicle: saline with Tween-80
  survivor count: 9 of 10

## c1cc2n(n1)CCN2
[7]
  survivor count: 10 of 10
[6]
  survivor count: 10 of 10
dose: 300.0 mg/kg/injection, schedule: Q01DX009 (ip), vehicle: saline
  survivor count: 8 of 10
[8]
  survivor count: 0 of 10
dose: 800.0 mg/kg/injection, schedule: Q04DX003 (ip), vehicle: saline with Tween-80
  survivor count: 5 of 10

## OCC1OC(n2cnc3c(SCc4ccccc4)ncnc32)C(O)C1O (stereo unspecified)
dose: 75.0 mg/kg/injection, schedule: Q01DX009 (ip), vehicle: saline with Tween-80
  T/C: 129 % of control
dose: 150.0 mg/kg/injection, schedule: Q01DX009 (ip), vehicle: saline with Tween-80
  T/C: 145 % of control
dose: 300.0 mg/kg/injection, schedule: Q01DX009 (ip), vehicle: saline with Tween-80
  survivor count: 8 of 9

## c1nnc(NCNc2nncs2)s1
[12]
  T/C: 125 % of control
[14]
  survivor count: 10 of 10
[7]
  survivor count: 5 of 10
dose: 200.0 mg/kg/injection, schedule: Q04DX003 (ip), vehicle: saline
  survivor count: 8 of 10
dose: 400.0 mg/kg/injection, schedule: Q04DX003 (ip), vehicle: saline
  survivor count: 4 of 10

## Cc1ccc(CNc2ccc(Br)cc2)cc1
[9]
  survivor count: 10 of 10

## CCCCCCCCCCCCCCCCCCNC(=S)N/N=C/c1ccc(Cl)cc1Cl
[8]
  survivor count: 10 of 10
